Results are given in words; binding and its absence hold for the method and conditions named. In cells and extracts the contact can be indirect. Some results given as binding are weak or reduced against the parent protein; the word gives no strength.
How the values were obtained:
[1] = target: Flag-tagged BIK-b5TM (UniProt Q13323); assay: co-immunoprecipitation with anti-Flag from transfected 293T lysate, Western blot
[2] = target: Flag-tagged BIK-b5TM (UniProt Q13323); assay: co-immunoprecipitation with anti-Flag (figure legend)
[3] = target: endogenous Grp78 (human) (UniProt P11021); assay: co-immunoprecipitation and GST pull-down (figure legend)
[4] = target: endogenous Grp78 (human) (UniProt P11021); assay: co-immunoprecipitation with anti-BIK from 293T lysate, Western blot

The chains behind the UniProt entries cited, without tags or fusion partners. Residues count along the entry.
UniProt P11021, residues 19-654: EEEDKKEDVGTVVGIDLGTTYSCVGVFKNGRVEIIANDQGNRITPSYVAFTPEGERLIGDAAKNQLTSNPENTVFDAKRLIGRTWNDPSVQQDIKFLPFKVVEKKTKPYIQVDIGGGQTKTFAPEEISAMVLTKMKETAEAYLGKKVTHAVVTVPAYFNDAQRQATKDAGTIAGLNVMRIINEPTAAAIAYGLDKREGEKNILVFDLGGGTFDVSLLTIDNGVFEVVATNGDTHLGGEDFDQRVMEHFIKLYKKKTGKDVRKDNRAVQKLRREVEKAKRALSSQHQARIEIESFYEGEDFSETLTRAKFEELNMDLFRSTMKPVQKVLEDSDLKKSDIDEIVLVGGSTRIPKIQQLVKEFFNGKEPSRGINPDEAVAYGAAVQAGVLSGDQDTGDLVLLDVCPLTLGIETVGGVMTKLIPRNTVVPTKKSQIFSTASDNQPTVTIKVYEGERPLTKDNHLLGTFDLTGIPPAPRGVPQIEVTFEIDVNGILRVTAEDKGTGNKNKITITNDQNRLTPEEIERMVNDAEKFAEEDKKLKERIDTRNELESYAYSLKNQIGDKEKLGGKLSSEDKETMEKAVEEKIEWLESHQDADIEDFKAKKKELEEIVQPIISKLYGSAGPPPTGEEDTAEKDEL

In the case of “endogenous Grp78 (from UniProt P11021 19-654)”, the binding [1] is reported as “binds” and the binding [2] is reported as “binds”.

B1: endogenous BIK (other, human, UniProt Q13323 1-160, looked up)
chain: MSEVRPLSRDILMETLLYEQLLEPPTMEVLGMTDSEEDLDPMEDFDSLECMEGSDALALRLACIGDEMDVSLRAPRLAQLSEVAMHSLGLAFIYDQTEDIRDVLRSFMDGFTTLKENIMRFWRSPNPGSWVSCEQVLLALLLLLALLLPLLSGGLHLLLK
notes: Endogenous protein from total cell extract of the human cell line 293T, untreated or etoposide-treated; also called BIK protein
With B1 the binding [3] was “binds” and the binding [4] was “binds”.
